# Results of single-concentration screens

The chains behind the UniProt entries cited, without tags or fusion partners. Residues count along the entry.
UniProt A4I591, 1-473: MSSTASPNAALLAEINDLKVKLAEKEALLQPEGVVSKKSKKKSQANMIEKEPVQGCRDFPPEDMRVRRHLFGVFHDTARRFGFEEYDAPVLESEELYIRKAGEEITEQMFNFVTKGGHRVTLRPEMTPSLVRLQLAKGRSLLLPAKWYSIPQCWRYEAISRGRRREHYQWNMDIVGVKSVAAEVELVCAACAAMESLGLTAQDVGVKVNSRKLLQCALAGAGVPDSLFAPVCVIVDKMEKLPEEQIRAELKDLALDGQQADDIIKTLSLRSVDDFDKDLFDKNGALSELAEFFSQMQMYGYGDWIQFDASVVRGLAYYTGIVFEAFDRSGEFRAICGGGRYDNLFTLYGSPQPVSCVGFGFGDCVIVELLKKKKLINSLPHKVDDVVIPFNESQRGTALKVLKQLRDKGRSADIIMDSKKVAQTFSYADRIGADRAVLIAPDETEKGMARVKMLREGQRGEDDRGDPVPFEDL

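Enzyme assay of histidyl-tRNA synthetase; the read-out is not stated. Target: Histidine-tRNA ligase, Leishmania infantum (UniProt A4I591). Tested at 30 µM. The record gives no direction; compounds that gave an IC50 in retests scored well above the rest, so higher reads as stronger inhibition. The assay is labelled LdHisRS but filed under L. infantum. Of about 69,000 compounds tested this way, about 410 (0.6%) reached 50% or more in at least one test.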

Each number is a percent effect as filed. The controls that fix the scale are not given in the record; negative values are as filed. This is an unselected part of the compounds tested.

{"smiles": "Cc1c(Br)c(C(F)(F)F)nn1C(C)C(=O)O", "stereo": "stereo not drawn", "effect": 11.11}
{"smiles": "COc1cccc(-c2cnc3n2CCC32CCN(C(C)=O)CC2)c1", "effect": 15.38}
{"smiles": "Cc1cc(C)n(CC(C)NC(=O)C2(c3ccc(F)cc3)CC2)n1", "stereo": "stereo not drawn", "effect": 13.39}
{"smiles": "O=C(Cc1noc2ccccc12)N1CCCC1c1noc(C2CC2)n1", "stereo": "stereo not drawn", "effect": 2.381}
{"smiles": "Cc1nc(CN2CCCC(CCc3ccccc3C(F)(F)F)C2)no1", "stereo": "stereo not drawn", "effect": 11.57}
{"smiles": "Cc1ccc(C(=O)NS(=O)(=O)c2ccccc2Cl)c(=O)[nH]1", "effect": -5.455}
{"smiles": "Cc1cc(-c2nccs2)nc(C2CCN(Cc3ccc(F)cc3)CC2)n1", "effect": 14.29}
{"smiles": "COc1ccc(C(C(=O)O)N(C)CCN2CCCC2)cc1F", "stereo": "stereo not drawn", "effect": 13.13}
{"smiles": "O=C(O)c1ccccc1-c1ccc(CN2CCC(CO)CC2)cn1", "effect": 15.71}
{"smiles": "O=C(Nc1cnccn1)[C@H]1COC[C@H]2CN(C3CCCC3)C[C@H]21", "effect": 7.692}
{"smiles": "CC(C(=O)N1CCOCC1)n1cc(Br)cn1", "stereo": "stereo not drawn", "effect": 13.79}
{"smiles": "CCc1ccc(C(=O)NC2CCN(c3ccn(C)n3)C2)o1", "stereo": "stereo not drawn", "effect": 1.961}
{"smiles": "Cc1[nH]ncc1CCCNC(=O)Nc1ccc2c(c1)OC1(CCCC1)O2", "effect": 23.29}
{"smiles": "CCCc1n[nH]c(C2CN(C(=O)CCn3ccccc3=O)CCO2)n1", "stereo": "stereo not drawn", "effect": 12.28}
{"smiles": "Cc1nnc(NC(=O)NCc2ccc(N3CCOCC3)nc2)s1", "effect": 9.615}
{"smiles": "FC(F)(F)C1CCCn2c(CNCc3ccsc3)nnc21", "stereo": "stereo not drawn", "effect": 20.39}
{"smiles": "Cc1nn(C)c(N2CCOCC2)c1CNCc1ccc(C(C)O)cc1", "stereo": "stereo not drawn", "effect": 4.425}
{"smiles": "O=C(N[C@@H]1CN[C@H]2CCCO[C@H]21)c1cnccn1", "effect": 6.452}
{"smiles": "Cc1ccc(OCC(C)NS(=O)(=O)Cc2ccon2)cc1", "stereo": "stereo not drawn", "effect": 7.143}
{"smiles": "CC(C)N(C)CC(=O)NCC(O)c1cc2ccccc2s1", "stereo": "stereo not drawn", "effect": 17.65}
{"smiles": "COc1ccccc1C1SCC(=O)Nc2c1c(=O)[nH]n2C1CCCCC1", "stereo": "stereo not drawn", "effect": 16.48}
{"smiles": "CCN(CC)[C@H]1COC[C@@H]2CN(Cc3cnn(C)c3)C[C@@H]21", "effect": 15.79}
{"smiles": "CCOC(C)c1nc(Cn2cccn2)cs1", "stereo": "stereo not drawn", "effect": 1.667}
{"smiles": "CCN(C)[C@H]1CN(C(=O)c2cccc(N3CCS(=O)(=O)CC3)c2)C[C@@H]1O", "effect": 8.197}
{"smiles": "Cc1cnn(CC2CN(c3ncnc4c3CCC4)CCO2)c1", "stereo": "stereo not drawn", "effect": 32.89}
{"smiles": "OC1CCCN(Cc2c(-c3ccco3)[nH]c3ncccc23)C1", "stereo": "stereo not drawn", "effect": 66.67}
{"smiles": "CN(C)c1nc(N2CCCC2)nc2c1CCN(C(=O)c1ccco1)CC2", "effect": 26}
{"smiles": "CN(C)[C@@H]1CO[C@H](CNC(=O)CC(C)(C)C)[C@H]1O", "effect": 18.92}
{"smiles": "COc1ccccc1C(=O)N(C)Cc1nnc2ccccn12", "effect": 16.81}
{"smiles": "Brc1cccc(-c2noc(C3COCCO3)n2)c1", "stereo": "stereo not drawn", "effect": 10}
{"smiles": "CCc1cccc2c(CC(=O)N(C)CCN(C)C)c(C)[nH]c12", "effect": 12.59}
{"smiles": "COCC(=O)N1C[C@H]2CNC[C@@]2(C(=O)NCc2cc(C)n[nH]2)C1", "effect": 1.429}
{"smiles": "CN(C)C(=O)CN1C[C@@H]2CC[C@H](C1)N(Cc1c(F)cccc1Cl)C2", "effect": 24}
{"smiles": "O=C(NCCN1CCc2ccccc21)c1cc(-c2ccc(O)cc2)n[nH]1", "effect": 0}
{"smiles": "CNc1nc2c(c(C(=O)N3CCCC3)n1)CN(C(=O)C1CCCC1)CC2", "effect": -1.064}
{"smiles": "O=C([C@@H]1COC[C@H]2CN(CC3CC3)C[C@H]21)N1CCC(F)CC1", "effect": 0}
{"smiles": "COCC1CN(Cc2ccoc2)Cc2nnn(C)c21", "stereo": "stereo not drawn", "effect": 12.73}
{"smiles": "O=C(c1ncccn1)N1CCC[C@]2(C[C@@H](Oc3ncccc3F)CO2)C1", "effect": 11.29}
{"smiles": "N#Cc1ccc(N2CCCN(c3nccs3)CC2)nc1", "effect": 8.621}

From ChEMBL document CHEMBL3988442, “University of Dundee, Small-Polar-MMV Screening Library” (2021).